Results as given in patent US5221606A, “Reagent and kit for enzyme assay comprising a substrate consonant with given enzyme to be assayed” (King's College London, priority 1987, dated 1993).
The name of at least one read-out is uncertain.

Tested on: carboxyesterase
Test: substrate test with carboxyesterase
Format: biochemical
Settings: substrate concentration […]
Description: The serum samples were diluted by a factor of 10 prior to the assay. The substrate solution and the diluted sera were then preincubated at 37° C. in a water bath. Aliquots (0.75 ml) of the substrate solution were then pipetted into small plastic tubes (2 ml capacity), and 0.05 ml samples of the sera were added to each of the substrate aliquots and shaken vigorously to ensure adequate mixing. A blank was run by substituting water (0.05 ml) for the serum. The reaction was stopped after 10 min by the addition of the stopping buffer (0.25 ml) [prepared by dissolving DABCO (22.4 g) in water (200 ml) and adjusting the pH to 10 by the addition of a little conc. hydrochloric acid. The resulting mixture was then made up to 1000 ml with acetone]. […] [formula] where t=time of incubation in hours
Otherwise it was carried out in exactly the same ways as above

## COc1cc(C=C2SC(=S)N(CC(=O)O)C2=O)cc(OC)c1OC(=O)c1ccccc1 [11e]
  Km: 33 µM
